{"sequences": {"note": "Protein sequences, listed by entry. Tags and fused reporters are not part of them. Lines headed by an entry give the natural chain unless they say otherwise; changes in a name come on top.", "UniProt P18054": "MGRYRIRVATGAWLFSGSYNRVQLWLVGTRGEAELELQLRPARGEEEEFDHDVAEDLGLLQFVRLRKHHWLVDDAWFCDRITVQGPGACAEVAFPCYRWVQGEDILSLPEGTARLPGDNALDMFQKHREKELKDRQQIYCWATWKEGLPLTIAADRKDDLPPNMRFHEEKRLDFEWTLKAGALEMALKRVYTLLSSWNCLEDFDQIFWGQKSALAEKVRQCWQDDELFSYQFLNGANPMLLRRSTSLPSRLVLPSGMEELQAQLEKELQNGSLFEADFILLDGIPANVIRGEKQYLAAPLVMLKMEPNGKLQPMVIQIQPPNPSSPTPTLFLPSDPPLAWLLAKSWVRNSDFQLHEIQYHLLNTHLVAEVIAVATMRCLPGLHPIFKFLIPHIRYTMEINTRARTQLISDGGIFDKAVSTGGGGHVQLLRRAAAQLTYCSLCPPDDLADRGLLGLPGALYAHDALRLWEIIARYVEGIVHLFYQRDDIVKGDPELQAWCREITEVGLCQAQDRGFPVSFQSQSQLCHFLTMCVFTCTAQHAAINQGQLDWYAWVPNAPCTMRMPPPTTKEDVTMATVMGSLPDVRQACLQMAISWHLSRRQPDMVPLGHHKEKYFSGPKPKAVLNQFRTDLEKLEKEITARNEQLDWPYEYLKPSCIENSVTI"}, "source": "PubChem BioAssay AID1671190", "about": "(National Center for Advancing Translational Sciences (NCATS), 2021)", "note": "Values joined by “and” are separate entries in the source; they are usually repeats but may differ in a detail not shown here. Identical values can stand only once. Hit rate of the full screen: of about 580,000 compounds, about 6,100 (1.1%) were called active. Inconclusive means that the source gave no clear call. Such entries were picked first, then a sample of the others. The call rests on the fitted dose curve; in most records, active means well fitted inhibition curve with a large enough effect; inconclusive means small, poorly fitted or top-dose-only effect, or another doubt; inactive means no such curve, though single readings can be large or run the other way. Where the call is inconclusive, the potency comes from a doubtful curve fit. On the % scale 0 is the no-effect control and ±100 the full control effect; potency means the concentration at half of the fitted maximal effect.", "data": [{"biological_target": "Polyunsaturated fatty acid lipoxygenase ALOX12 (Homo sapiens) (UniProt P18054)", "assay": "Primary qHTS assay for inhibitors of human arachidonate 12S-lipoxygenase (ALOX12): Round 2", "settings": "purified 12hLO, xylenol orange hydroperoxide absorbance; activity change, negative = inhibition: at 108 µM (top of the series) unless noted", "how_it_was_run": "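Purified human 12hLO (150 nM final) in 25 mM Hepes, 0.01% Triton X-100, pH 7.0 was preincubated 15 min at room temperature with compound. Then 40 uM arachidonic acid was added, 30 min. Hydroperoxide was read by Fe-XO absorbance ratio 573/405 nm.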", "values": [{"smiles": "O=C(COc1coc(CN2CCN(c3ccccc3F)CC2)cc1=O)N1CCc2ccccc21", "Potency": "inconclusive: 6.31 µM [inhibitor, full curve, poor fit]"}, {"smiles": "COc1ccc(-c2nc(-c3ccc(Br)o3)no2)cc1", "activity change, negative = inhibition": "inactive: -26%"}, {"smiles": "COc1ccc(C2C(C(=O)OCC(=O)NC(C)(C)C)CCC(=O)N2c2ccc(C)cc2)cc1OC", "note": "(stereo unspecified)", "Potency": "inconclusive: 89.1 µM [inhibitor, partial curve, poor fit]"}, {"smiles": "O=C(CCn1c2c(c3ccccc31)CCCC2)NNC(=O)c1ccc([N+](=O)[O-])cc1", "activity change, negative = inhibition": "inactive: -15.6%"}, {"smiles": "CC/C(CC(=O)C(F)(F)F)=N\\NC(=O)/C(C#N)=C/N(C)C", "activity change, negative = inhibition": "inactive: 11%"}, {"smiles": "Cc1cc(Nc2nc(Cl)c(Cl)cc2Cl)n(-c2ccccc2)n1", "activity change, negative = inhibition": "inactive: -27.2%"}, {"smiles": "O=C(c1occc1-c1ccccc1)N1CCN(S(=O)(=O)c2c(F)cccc2F)CC1", "activity change, negative = inhibition": "inactive: 12.1%"}, {"smiles": "COc1ccc(CCN(C)c2ccc(C(N)=O)cc2[N+](=O)[O-])cc1OC", "activity change, negative = inhibition": "inactive: -15.7%"}, {"smiles": "C[C@@H]1CN([C@H](C)CO)C(=O)c2cc(NC(=O)Nc3ccc(F)cc3)ccc2O[C@@H](C)CCCCO[C@H]1CN(C)S(=O)(=O)c1cccs1", "Potency": "inconclusive: 79.4 µM [inhibitor, single point]"}, {"smiles": "Cc1[nH]c2ccccc2c1C1=CC(=O)C=CC1=O", "Potency": "inconclusive: 2.82 µM [inhibitor, full curve, poor fit]"}, {"smiles": "Cc1cccc(CN2CCCCCCNC(=O)CC2c2ccccc2)c1", "note": "(stereo unspecified)", "activity change, negative = inhibition": "inactive: 29.5%"}, {"smiles": "COc1ccc(C2Nc3cccc4cccc(c34)N2)cc1Br", "Potency": "inconclusive: 5.01 µM [inhibitor, full curve, poor fit]"}, {"smiles": "CCn1cc(/C=N/NC(=O)c2ccc(C#N)cc2F)c2ccccc21", "activity change, negative = inhibition": "inactive: 14.7%"}, {"smiles": "COC(=O)c1c(C)oc2c1cc(NS(=O)(=O)c1ccc(C)cc1)c1ccccc12", "activity change, negative = inhibition": "inactive: -25.4%"}, {"smiles": "CN(C)/N=C/c1cc([N+](=O)[O-])ccc1O", "activity change, negative = inhibition": "inactive: -9.6%"}, {"smiles": "CC(C)NC(=O)C(C)N1CCN(S(=O)(=O)c2ccc3ccccc3c2)CC1", "note": "(stereo unspecified)", "Potency": "active: 1.41 µM"}, {"smiles": "Cc1cccc(C)c1NC(=O)CN(C)C(=O)CSc1ccc(F)c(F)c1", "activity change, negative = inhibition": "inactive: -27%"}, {"smiles": "CC(/C=N/Nc1ccc(S(N)(=O)=O)cc1[N+](=O)[O-])c1ccccc1", "note": "(stereo unspecified)", "Potency": "inconclusive: 11.2 µM [inhibitor, full curve, poor fit]"}, {"smiles": "CC1CCCCC1NC(=O)C(c1ccccc1)c1ccccc1", "note": "(stereo unspecified)", "activity change, negative = inhibition": "inactive: -8.97%"}, {"smiles": "Brc1ccc(OCc2nc(-c3ccccn3)n[nH]2)cc1", "Potency": "inconclusive: 79.4 µM [inhibitor, single point]"}, {"smiles": "Cn1ccc2c(-c3ccc(C(F)(F)F)cc3)cc3c(c21)C1CCC3C1", "note": "(stereo unspecified)", "Potency": "inconclusive: 100 µM [inhibitor, single point]"}, {"smiles": "C[C@H]1CN(c2ccc(N3CCNC[C@@H]3C)cc2C#N)CCN1Cc1ccccc1", "Potency": "inconclusive: 44.7 µM [inhibitor, partial curve, poor fit]"}, {"smiles": "Cc1cc2c(c(=O)n(-c3ccc(F)cc3)c(=O)n2CC(=O)Nc2ccc(F)cc2)n1C", "activity change, negative = inhibition": "inactive: -2.52%"}, {"smiles": "C[C@H](O)c1[nH]c2cc(F)ccc2c1[C@H](C)O", "Potency": "inconclusive: 50.1 µM [inhibitor, partial curve, poor fit]"}, {"smiles": "CCCCNC(=S)Nc1ccc(Br)c(C)c1", "Potency": "inconclusive: 44.7 µM [inhibitor, partial curve, poor fit]"}, {"smiles": "CC(C)C(=O)NC(=S)Nc1sc2c(c1C(N)=O)CCCC2", "Potency": "inconclusive: 44.7 µM [inhibitor, partial curve, poor fit]"}, {"smiles": "Cc1ccc(-n2c(C3CCN(C(=O)c4ccc(C(C)(C)C)cc4)CC3)n[nH]c2=O)cc1", "Potency": "inconclusive: 25.1 µM [inhibitor, full curve]"}, {"smiles": "O=C(NCCCc1ccccc1)c1cccc(NC(=O)C2CCC2)c1", "Potency": "inconclusive: 141 µM [inhibitor, partial curve, poor fit]"}, {"smiles": "COC(=O)C[C@H]1c2ccccc2S(=O)(=O)N1c1cccc(OC)c1", "Potency": "inconclusive: 112 µM [inhibitor, single point]"}, {"smiles": "CC1CCN(S(=O)(=O)c2ccc(NC(=O)Cn3nnc(-c4ccccc4F)n3)cc2)CC1", "activity change, negative = inhibition": "inactive: -13.2%"}, {"smiles": "Cc1cccc(NC(=O)c2nn(C)c(=O)c3ccccc23)c1", "activity change, negative = inhibition": "inactive: 14.3%"}, {"smiles": "COc1ccc(-c2cnc3[nH]cc(CC(=O)N4CCCC4)c3c2)cc1", "Potency": "inconclusive: 126 µM [inhibitor, single point]"}, {"smiles": "O=C(c1cccnc1)N1CCN(Cc2cccc(Br)c2)CC1", "Potency": "inconclusive: 0.316 µM [inhibitor, full curve, poor fit]"}, {"smiles": "CCCCn1cc(S(=O)(=O)c2ccc(CC)cc2)c(=O)c2cc(OCC)ccc21", "Potency": "inconclusive: 39.8 µM [inhibitor, partial curve, poor fit]"}, {"smiles": "COc1ccc(NC(=O)C2CCCN(c3ccc4nncn4n3)C2)cc1Cl", "note": "(stereo unspecified)", "activity change, negative = inhibition": "inactive: -11.5%"}, {"smiles": "COc1ccccc1Cn1c(=O)c2ccccc2n2c(SCC(=O)N3CCCCC3)nnc12", "activity change, negative = inhibition": "inactive: 8.08%"}, {"smiles": "COc1ccc(-c2nnc3ccc(SC(C(C)=O)C(C)=O)nn23)cc1OC", "Potency": "inconclusive: 0.501 µM [inhibitor, full curve, poor fit]"}, {"smiles": "CC(C)C[C@H]1CN(CCCC[C@H]2CNC(=O)C(=O)N2Cc2ccccc2)C(=O)C(=O)N1CCC1CCCCC1", "Potency": "inconclusive: 44.7 µM [inhibitor, partial curve, poor fit]"}, {"smiles": "CN1C(=O)CS/C1=N\\NC(=O)COc1cccc2cccnc12", "activity change, negative = inhibition": "inactive: -7.47%"}, {"smiles": "Cc1ccc(CCN2C(Nc3ccccc3)=NC[C@@H]2C)cc1", "Potency": "inconclusive: 44.7 µM [inhibitor, partial curve, poor fit]"}, {"smiles": "CCOC(=O)CSc1nnc(NC(=O)C2CC(=O)N(c3ccc(F)cc3)C2)s1", "note": "(stereo unspecified)", "Potency": "active: 39.8 µM"}, {"smiles": "COC(=O)[C@H](C)NC(=O)NCCC1=CCCCC1", "activity change, negative = inhibition": "inactive: 0%"}, {"smiles": "CNc1ncc(C(=O)C(C)(C)C)s1", "activity change, negative = inhibition": "inactive: -1.21%"}, {"smiles": "CN(C)[C@@H]1[C@@H](NC(=O)Cn2cnc3ccsc3c2=O)[C@H]2CCO[C@H]21", "activity change, negative = inhibition": "inactive: 7.91%"}, {"smiles": "CCC(C)[C@H](NC(=O)[C@@H]1Cc2c([nH]c3ccccc23)C2c3ccccc3C(=O)N21)C(=O)NCC1CCCO1", "note": "(stereo partly specified)", "Potency": "inconclusive: 126 µM [inhibitor, single point]"}, {"smiles": "CCOC(=O)c1cc(NC(C)=O)cc(C(=O)OCC)c1", "activity change, negative = inhibition": "inactive: 2.5%"}, {"smiles": "Cc1ccc2oc3c(c(=O)c2c1)C(c1ccc([N+](=O)[O-])cc1)N(CCCN1CCOCC1)C3=O", "note": "(stereo unspecified)", "Potency": "inconclusive: 56.2 µM [inhibitor, partial curve, poor fit]"}, {"smiles": "O=C(NC1CCN(Cc2ccccc2)CC1)c1ccccc1OCc1ccccc1", "Potency": "inconclusive: 35.5 µM [inhibitor, single point]"}, {"smiles": "CC(=O)N(O)CCCCCNC(=O)CCC(=O)N(O)CCCCCNC(=O)CCC(=O)N(O)CCCCCN", "Potency": "inconclusive: 44.7 µM [inhibitor, partial curve, poor fit] and inconclusive: 50.1 µM [inhibitor, partial curve, poor fit]"}, {"smiles": "CCCCC(=O)NCc1ccc2c(c1)cc(C)n2C", "activity change, negative = inhibition": "inactive: 0%"}, {"smiles": "CCN(CC)CCCNc1ccc(-c2nnc(-c3ccc(OCC(C)C)cc3)o2)cn1", "Potency": "inconclusive: 63.1 µM [inhibitor, partial curve, poor fit]"}, {"smiles": "O=C1C=C(Nc2cccc(Cl)c2)CC(c2ccco2)C1", "note": "(stereo unspecified)", "Potency": "inconclusive: 50.1 µM [inhibitor, partial curve, poor fit]"}, {"smiles": "CCOc1ccc2c(n1)CCN(C(=O)Nc1cc(C)cc(C)c1)C2", "activity change, negative = inhibition": "inactive: 37.2%"}, {"smiles": "COc1ccc(C2(C(=O)N3CC(CO)C4(CCNCC4)C3)CCCCC2)cc1", "note": "(stereo unspecified)", "Potency": "active: 31.6 µM"}, {"smiles": "CCOc1ccc(NC(=O)c2ccccn2)cc1", "activity change, negative = inhibition": "inactive: -11%"}, {"smiles": "CCc1nc2c(c(-c3ccc(Cl)cc3)n1)CN(Cc1ccc(OC(F)(F)F)cc1)CC2", "activity change, negative = inhibition": "inactive: -15.1%"}, {"smiles": "COc1cccc(N2C(=O)[C@@H]3C[C@@H](NC(=O)c4snnc4C)CCN3C2=O)c1", "activity change, negative = inhibition": "inactive: 15.7% [at 176 µM]"}, {"smiles": "O=C1C(=O)N(CCN2CCOCC2)C(c2cccc(F)c2)/C1=C(\\O)c1ccc(Br)cc1", "note": "(stereo unspecified)", "activity change, negative = inhibition": "inactive: -4.3%"}, {"smiles": "CC(=O)Nc1ccc(S(=O)(=O)N2C[C@@H]3C[C@H](C2)c2c(-c4ccc(Cl)cc4)ccc(=O)n2C3)cc1", "Potency": "inconclusive: 15.8 µM [inhibitor, full curve]"}, {"smiles": "FC(F)(F)c1ccc(Cl)c(N/N=C/c2cccc(OCc3ccccc3)c2)c1", "Potency": "active: 7.08 µM"}, {"smiles": "O=C(/C=C/c1ccccc1)Nc1cccc(C(=O)NCCCc2ccccc2)c1", "Potency": "inconclusive: 28.2 µM [inhibitor, partial curve]"}, {"smiles": "CC(C)(C)c1ccc(OCC(=O)NNC(=S)NC(=O)c2ccccc2[N+](=O)[O-])c(Br)c1", "Potency": "inconclusive: 50.1 µM [inhibitor, partial curve, poor fit]"}, {"smiles": "Cc1ccc(C(=O)NCC(C)C)cc1N", "activity change, negative = inhibition": "inactive: 9.3%"}, {"smiles": "O=C(c1ccc(OCC2CCCO2)cc1)N1CCc2ccccc2C1", "note": "(stereo unspecified)", "Potency": "inconclusive: 100 µM [inhibitor, single point]"}, {"smiles": "Cc1cc(C)cc(C(=O)NCC(=O)OCc2ncc(-c3ccccc3)o2)c1", "activity change, negative = inhibition": "inactive: -2.3%"}, {"smiles": "O=C(Cn1c(=O)n(CCc2ccccc2)c(=O)c2sccc21)c1ccc(Cl)cc1", "Potency": "active: 22.4 µM"}, {"smiles": "Cn1c(CC(=O)Nc2ccccc2F)nnc1SCC(=O)Nc1ccccc1Br", "activity change, negative = inhibition": "inactive: -1.88%"}, {"smiles": "COC(=O)c1sc(=S)n(-c2ccccc2)c1N", "Potency": "active: 44.7 µM"}, {"smiles": "CC(=O)c1ccc(N2CC(C)(C)C2=O)cc1", "Potency": "inconclusive: 100 µM [inhibitor, single point]"}, {"smiles": "Cc1cccc(C)c1N(CC(=O)NCc1ccco1)C(=O)CNS(=O)(=O)c1ccc(F)cc1", "Potency": "inconclusive: 79.4 µM [inhibitor, partial curve, poor fit]"}, {"smiles": "Clc1cccc(-n2ncc3c(Nc4ccc5c(c4)OCCO5)ncnc32)c1", "Potency": "inconclusive: 100 µM [inhibitor, single point]"}]}]}
